Measurements published in patent publication US6916471B2, “Red blood cells loaded with S-nitrosothiol and uses therefor” (Duke University, priority 1995, dated 2005).

Assay: Endogenous SNO-Hb and Hb(FeII)NO in blood by photolysis-chemiluminescence
Format: in vivo, rat
Source text: To determine if SNO-Hb is naturally occuring in the blood, and if so, its relationship to the O2 transport capacity and nitrosylated-heme content of red cells, we developed an analytical approach to assay the S-nitrosothiol and nitrosyl-heme content of erythrocytes (Table 2). […] Hb was then purified from red cells and assayed for RSNO and (FeII)NO content. Arterial blood contained significant levels of SNO-Hb, whereas levels were virtually undetectable in venous blood (Table 2). […] The arterial-venous distribution seen for SNO-Hb was reversed in the case of Hb(FeII)NO, which was detected in higher concentrations in partially deoxygenated (venous) erythrocytes (Table 2). Accordingly, the proportion of nitrosylated protein thiol and heme appears to depend on the oxygenation state of the blood. Consistent with these findings, Wennmalm and coworkers have shown that Hb(FeII)NO forms mainly in venous (partially deoxygenated) blood (Wennmalm, A., et al., Br. J. Pharmacol., 106(3):507-508 (1992)). However, levels of Hb(FeII)NO in vivo are typically too low to be detected (by EPR) and SNO-Hb is EPR-silent (i.e. it is not paramagnetic). Thus, photolysis-chemiluminesence represents an important technological advance, as it is the first methodology capable of making quantitative and functional assessments of NO binding to Hb under normal physiological conditions.
Blood was obtained from the left ventricle (arterial) and jugular vein (venous) of anesthetized Sprague-Dawley rats. […] Red blood cells were isolated by centrifugation at 800 g, washed three times in phosphate buffered saline at 4° C., lysed by the addition of 4-fold excess volume of deionized water containing 0.5 mM EDTA, and desalted rapidly across G-25 columns according to the method of Penefsky at 4° C. In 24 rats, Hb samples were divided in two aliquots which were then treated or not treated with 10-fold excess HgCl2 over protein concentration as measured by the method of Bradford. Determinations of SNO-Hb and Hb(FeII)NO were made by photolysis-chemiluminescence as described below. In 12 additional rats, further verification of the presence of SNO-Hb was made by assaying for nitrite after HgCl2 treatment. Specifically, samples (with and without HgCl2) were separated across Amicon-3 (Centricon filters, m.w. cut off 3,000) at 4° C. for 1 h, and the low molecular weight fractions collected in airtight syringes containing 1 μM glutathione in 0.5 N HCl. Under these conditions, any nitrite present was converted to S-nitrosoglutathione, which was then measured by photolysis-chemiluminescence (detection limit ˜1 nM). SNO-Hb was present in all arterial samples, and levels determined by this method (286±33 nM) were virtually identical to and not statistically different from those shown in Table 2. In venous blood, SNO-Hb was undetectable (0.00±25 nM); levels were not statistically different from those given above.
A highly sensitive photolysis-chemiluminescence methodology was employed. A somewhat similar assay has been used for measuring RSNOs (S-nitrosothiols) in biological systems (Gaston, B., et al., (1993); Stamler, J. S., et al., Proc. Natl. Acad. Sci. USA 89:7674-7677 (1992)). The method involves photolytic liberation of NO from the thiol, which is then detected in a chemiluminesence spectrometer by reaction with ozone. The same principle of operation can be used to cleave (and measure) NO from nitrosyl-metal compounds (Antonini, E. Brunori, M. In Hemoglobin and Myoglobin in Their Reactions with Ligands, American Elsevier Publishing Co., Inc., New York, pp. 29-31 (1971)). With adjustment of flow rates in the photolysis cell, complete photolysis of the NO ligand of Hb(FeII)NO could be achieved. […] UV/VIS spectroscopy confirmed that NO remained attached to heme in the presence of excess HgCl2.

Substance: Hb(FeI)NO: hemoglobin with NO bound at the heme, endogenous in blood
- Hb(FeI)NO endogenous level in blood (Arterial (left ventricle)): 536 ± 99 nm
- Hb(FeI)NO endogenous level in blood (Venous (jugular vein)): 894 ± 126 nm

Substance: S-nitrosohemoglobin [SNO-Hb]
- SNO-Hb endogenous level in blood (Arterial (left ventricle)): 311 ± 55 nM
- SNO-Hb endogenous level in blood (Venous (jugular vein)): 32 ± 14 nM
- SNO-Hb level by nitrite assay after HgCl2 treatment (arterial samples): 286 ± 33 nM
- SNO-Hb level by nitrite assay after HgCl2 treatment (venous blood): 0.00 ± 25 nM
